PMC7545708, “The small molecule PSSM0332 disassociates the CRL4A^DCAF8 E3 ligase complex to decrease the ubiquitination of NcoR1 and inhibit the inflammatory response in a mouse sepsis-induced myocardial dysfunction model” (International Journal of Biological Sciences, 2020)
These are yes or no findings as the source states them, for the method shown. In cells and extracts the contact can be indirect. Here binding means that the protein was enriched with, or labelled near, the bait; the list need not be complete.

Amino acid sequences for entries named in this document (tags omitted).
UniProt Q8N7N5: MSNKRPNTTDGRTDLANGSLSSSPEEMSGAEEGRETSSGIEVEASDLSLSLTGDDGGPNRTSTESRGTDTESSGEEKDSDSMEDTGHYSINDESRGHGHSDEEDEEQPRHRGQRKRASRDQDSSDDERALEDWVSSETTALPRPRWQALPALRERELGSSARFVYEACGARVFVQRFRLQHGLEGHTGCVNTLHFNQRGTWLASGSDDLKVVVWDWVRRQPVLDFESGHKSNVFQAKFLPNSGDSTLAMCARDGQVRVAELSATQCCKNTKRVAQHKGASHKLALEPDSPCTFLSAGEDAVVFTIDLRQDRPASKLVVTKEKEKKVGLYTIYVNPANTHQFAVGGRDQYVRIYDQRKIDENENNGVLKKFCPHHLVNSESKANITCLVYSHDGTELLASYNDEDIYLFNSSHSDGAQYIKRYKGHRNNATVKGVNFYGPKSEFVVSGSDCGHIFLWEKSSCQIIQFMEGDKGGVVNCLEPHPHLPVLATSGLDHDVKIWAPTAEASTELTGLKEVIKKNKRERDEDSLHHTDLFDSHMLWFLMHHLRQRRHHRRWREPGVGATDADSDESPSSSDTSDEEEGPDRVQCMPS
UniProt Q3U1J4: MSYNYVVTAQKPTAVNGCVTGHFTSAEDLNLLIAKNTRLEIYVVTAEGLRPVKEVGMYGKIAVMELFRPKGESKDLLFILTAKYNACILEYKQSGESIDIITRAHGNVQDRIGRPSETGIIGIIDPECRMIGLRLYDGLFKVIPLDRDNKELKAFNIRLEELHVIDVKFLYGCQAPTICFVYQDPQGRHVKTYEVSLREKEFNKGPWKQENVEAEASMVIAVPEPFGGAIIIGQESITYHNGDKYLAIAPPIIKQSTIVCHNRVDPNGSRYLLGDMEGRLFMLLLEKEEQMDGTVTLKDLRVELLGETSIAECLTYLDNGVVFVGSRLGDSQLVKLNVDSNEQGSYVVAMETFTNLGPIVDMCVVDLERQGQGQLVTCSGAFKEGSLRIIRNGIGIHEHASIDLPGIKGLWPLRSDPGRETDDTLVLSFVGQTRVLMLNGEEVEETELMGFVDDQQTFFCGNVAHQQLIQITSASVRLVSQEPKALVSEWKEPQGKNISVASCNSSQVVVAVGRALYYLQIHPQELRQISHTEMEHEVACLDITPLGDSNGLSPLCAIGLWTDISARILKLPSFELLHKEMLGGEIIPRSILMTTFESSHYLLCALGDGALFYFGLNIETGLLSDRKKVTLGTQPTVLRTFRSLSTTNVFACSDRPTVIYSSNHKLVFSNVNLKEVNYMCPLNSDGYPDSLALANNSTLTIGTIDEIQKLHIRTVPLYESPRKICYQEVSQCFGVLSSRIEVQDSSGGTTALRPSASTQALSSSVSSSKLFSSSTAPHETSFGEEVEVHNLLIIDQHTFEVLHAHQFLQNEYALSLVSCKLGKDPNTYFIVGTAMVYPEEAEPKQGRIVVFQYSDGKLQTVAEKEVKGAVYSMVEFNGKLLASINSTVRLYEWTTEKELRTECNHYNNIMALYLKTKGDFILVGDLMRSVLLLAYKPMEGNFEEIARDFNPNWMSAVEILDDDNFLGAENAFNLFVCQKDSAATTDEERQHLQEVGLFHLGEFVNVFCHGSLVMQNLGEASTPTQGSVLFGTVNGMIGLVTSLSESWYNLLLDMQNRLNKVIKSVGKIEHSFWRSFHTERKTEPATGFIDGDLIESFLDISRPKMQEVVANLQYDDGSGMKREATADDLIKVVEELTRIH
UniProt Q60974: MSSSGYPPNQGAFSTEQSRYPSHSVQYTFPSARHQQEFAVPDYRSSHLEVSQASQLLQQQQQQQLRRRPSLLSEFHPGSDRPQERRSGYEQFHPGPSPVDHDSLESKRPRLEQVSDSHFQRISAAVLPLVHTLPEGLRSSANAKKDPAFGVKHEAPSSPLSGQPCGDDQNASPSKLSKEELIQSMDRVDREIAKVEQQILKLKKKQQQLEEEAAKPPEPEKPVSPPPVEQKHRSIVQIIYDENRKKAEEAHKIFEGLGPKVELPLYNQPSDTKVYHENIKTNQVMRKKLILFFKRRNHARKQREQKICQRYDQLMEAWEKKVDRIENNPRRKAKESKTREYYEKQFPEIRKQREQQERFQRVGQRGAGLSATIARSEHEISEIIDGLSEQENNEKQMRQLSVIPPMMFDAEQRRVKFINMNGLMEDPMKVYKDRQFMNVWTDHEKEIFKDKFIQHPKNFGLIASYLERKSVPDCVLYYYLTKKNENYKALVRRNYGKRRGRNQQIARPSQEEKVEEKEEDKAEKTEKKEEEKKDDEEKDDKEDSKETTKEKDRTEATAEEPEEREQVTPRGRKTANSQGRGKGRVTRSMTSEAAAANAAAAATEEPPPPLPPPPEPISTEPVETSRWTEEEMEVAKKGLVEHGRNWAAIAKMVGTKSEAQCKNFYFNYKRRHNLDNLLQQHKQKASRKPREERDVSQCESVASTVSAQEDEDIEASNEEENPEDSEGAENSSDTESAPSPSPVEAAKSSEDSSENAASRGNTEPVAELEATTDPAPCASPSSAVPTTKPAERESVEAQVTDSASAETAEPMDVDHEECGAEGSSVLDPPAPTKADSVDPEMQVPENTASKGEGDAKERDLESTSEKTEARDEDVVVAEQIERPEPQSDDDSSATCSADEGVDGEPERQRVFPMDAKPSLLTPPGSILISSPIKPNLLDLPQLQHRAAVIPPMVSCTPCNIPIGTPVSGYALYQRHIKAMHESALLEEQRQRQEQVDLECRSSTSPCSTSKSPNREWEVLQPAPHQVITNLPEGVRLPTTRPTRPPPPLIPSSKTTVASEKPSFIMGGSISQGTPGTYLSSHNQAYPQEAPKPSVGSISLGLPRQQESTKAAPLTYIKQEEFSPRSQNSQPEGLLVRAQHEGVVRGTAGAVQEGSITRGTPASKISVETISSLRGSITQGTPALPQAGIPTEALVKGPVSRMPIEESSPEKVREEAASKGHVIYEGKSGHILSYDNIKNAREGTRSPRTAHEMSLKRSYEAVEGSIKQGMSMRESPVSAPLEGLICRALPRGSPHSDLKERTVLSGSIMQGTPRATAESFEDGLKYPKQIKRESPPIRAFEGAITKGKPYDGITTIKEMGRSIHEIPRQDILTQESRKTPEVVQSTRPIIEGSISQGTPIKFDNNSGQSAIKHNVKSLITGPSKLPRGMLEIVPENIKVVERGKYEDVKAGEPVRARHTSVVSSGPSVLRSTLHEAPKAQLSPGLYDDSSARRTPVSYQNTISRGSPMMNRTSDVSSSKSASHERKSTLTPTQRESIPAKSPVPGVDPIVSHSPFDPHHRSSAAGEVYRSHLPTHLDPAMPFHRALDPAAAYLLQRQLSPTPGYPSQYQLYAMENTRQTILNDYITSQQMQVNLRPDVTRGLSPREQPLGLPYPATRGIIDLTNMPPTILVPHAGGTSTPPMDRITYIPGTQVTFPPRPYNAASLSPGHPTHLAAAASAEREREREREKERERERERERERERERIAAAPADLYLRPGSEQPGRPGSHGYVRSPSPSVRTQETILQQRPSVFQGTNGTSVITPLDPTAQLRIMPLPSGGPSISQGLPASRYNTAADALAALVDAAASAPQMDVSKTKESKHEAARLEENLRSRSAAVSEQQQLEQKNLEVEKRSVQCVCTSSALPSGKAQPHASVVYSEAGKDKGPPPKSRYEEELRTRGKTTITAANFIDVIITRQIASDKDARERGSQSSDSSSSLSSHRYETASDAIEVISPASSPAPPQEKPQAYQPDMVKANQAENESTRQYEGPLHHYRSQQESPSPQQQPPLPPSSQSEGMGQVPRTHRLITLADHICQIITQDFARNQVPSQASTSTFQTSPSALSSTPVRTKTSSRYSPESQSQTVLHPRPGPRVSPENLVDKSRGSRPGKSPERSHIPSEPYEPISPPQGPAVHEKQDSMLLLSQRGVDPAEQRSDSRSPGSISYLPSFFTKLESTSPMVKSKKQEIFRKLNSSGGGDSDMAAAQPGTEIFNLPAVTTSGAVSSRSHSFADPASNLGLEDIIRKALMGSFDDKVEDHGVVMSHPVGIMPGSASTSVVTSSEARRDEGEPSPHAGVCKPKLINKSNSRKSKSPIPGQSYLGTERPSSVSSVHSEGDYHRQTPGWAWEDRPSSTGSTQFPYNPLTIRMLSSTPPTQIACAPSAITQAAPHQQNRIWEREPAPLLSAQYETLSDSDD

What was measured:
[1] = target: DCAF8 (DDB1 and CUL4 associated factor 8), endogenous in mouse heart tissue (mouse (endogenous in heart tissue)) (UniProt Q8N7N5); assay: affinity purification with mass spectrometry; SIMD mouse heart tissues (n=3, mixed) in RIPA buffer; IP with anti-DDB1 or anti-DCAF8 coupled protein A beads; SDS-PAGE, silver stain, bands cut, trypsin, mass spectrometry
[2] = target: DDB1 (DNA damage-binding protein 1), endogenous in mouse heart tissue (mouse (endogenous in heart tissue)) (UniProt Q3U1J4); assay: as above

binding [1]	Substance	binding [2]
binds	NcoR1 (nuclear receptor corepressor 1), endogenous in mouse heart tissue (from UniProt Q60974 1-2453)	
	DCAF8 (DDB1 and CUL4 associated factor 8), endogenous in mouse heart tissue (from UniProt Q8N7N5 1-591)	binds
